Results on three substances are retold here after publication PMC5076532.

Chains of the proteins cited; added tags and fusions are not shown. Lines headed by an entry give the natural chain unless they say otherwise; changes in a name come on top. A line that says so, or that is headed by a name, gives the form on record, which may keep a tag or linker.
UniProt Q62717: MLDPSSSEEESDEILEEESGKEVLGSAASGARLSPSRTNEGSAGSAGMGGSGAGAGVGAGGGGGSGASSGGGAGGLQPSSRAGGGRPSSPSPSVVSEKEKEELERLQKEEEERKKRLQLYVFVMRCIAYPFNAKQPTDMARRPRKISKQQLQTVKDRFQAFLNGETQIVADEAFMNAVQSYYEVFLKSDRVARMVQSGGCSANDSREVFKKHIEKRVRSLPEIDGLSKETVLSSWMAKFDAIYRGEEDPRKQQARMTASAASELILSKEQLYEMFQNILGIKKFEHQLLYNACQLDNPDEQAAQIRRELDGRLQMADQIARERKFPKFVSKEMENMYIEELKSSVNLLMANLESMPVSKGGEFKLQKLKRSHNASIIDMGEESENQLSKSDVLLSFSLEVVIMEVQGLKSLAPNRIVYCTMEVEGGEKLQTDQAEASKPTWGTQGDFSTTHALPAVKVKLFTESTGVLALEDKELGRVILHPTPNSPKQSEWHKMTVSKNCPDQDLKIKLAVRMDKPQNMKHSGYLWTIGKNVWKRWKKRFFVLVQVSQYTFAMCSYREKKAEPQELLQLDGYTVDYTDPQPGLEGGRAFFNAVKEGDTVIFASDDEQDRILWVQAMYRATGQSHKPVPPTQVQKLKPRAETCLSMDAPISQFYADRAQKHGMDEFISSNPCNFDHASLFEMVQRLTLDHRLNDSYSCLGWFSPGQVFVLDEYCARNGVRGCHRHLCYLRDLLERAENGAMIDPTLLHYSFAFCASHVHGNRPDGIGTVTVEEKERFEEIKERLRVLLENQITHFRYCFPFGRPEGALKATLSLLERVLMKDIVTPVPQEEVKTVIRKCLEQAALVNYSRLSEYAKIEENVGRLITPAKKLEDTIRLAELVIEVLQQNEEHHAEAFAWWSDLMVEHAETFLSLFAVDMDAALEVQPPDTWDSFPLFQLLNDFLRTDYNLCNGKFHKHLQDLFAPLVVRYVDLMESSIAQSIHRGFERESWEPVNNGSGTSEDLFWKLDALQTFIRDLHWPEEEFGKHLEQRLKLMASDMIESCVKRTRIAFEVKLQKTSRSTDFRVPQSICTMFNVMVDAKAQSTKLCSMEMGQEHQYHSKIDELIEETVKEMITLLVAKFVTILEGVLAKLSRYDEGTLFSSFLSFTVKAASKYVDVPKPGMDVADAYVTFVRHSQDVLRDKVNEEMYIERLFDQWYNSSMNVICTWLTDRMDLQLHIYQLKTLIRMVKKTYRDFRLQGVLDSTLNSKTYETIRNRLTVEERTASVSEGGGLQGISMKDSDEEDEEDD
CAPS(ΔC2)-Myc-His (Q62717, form named): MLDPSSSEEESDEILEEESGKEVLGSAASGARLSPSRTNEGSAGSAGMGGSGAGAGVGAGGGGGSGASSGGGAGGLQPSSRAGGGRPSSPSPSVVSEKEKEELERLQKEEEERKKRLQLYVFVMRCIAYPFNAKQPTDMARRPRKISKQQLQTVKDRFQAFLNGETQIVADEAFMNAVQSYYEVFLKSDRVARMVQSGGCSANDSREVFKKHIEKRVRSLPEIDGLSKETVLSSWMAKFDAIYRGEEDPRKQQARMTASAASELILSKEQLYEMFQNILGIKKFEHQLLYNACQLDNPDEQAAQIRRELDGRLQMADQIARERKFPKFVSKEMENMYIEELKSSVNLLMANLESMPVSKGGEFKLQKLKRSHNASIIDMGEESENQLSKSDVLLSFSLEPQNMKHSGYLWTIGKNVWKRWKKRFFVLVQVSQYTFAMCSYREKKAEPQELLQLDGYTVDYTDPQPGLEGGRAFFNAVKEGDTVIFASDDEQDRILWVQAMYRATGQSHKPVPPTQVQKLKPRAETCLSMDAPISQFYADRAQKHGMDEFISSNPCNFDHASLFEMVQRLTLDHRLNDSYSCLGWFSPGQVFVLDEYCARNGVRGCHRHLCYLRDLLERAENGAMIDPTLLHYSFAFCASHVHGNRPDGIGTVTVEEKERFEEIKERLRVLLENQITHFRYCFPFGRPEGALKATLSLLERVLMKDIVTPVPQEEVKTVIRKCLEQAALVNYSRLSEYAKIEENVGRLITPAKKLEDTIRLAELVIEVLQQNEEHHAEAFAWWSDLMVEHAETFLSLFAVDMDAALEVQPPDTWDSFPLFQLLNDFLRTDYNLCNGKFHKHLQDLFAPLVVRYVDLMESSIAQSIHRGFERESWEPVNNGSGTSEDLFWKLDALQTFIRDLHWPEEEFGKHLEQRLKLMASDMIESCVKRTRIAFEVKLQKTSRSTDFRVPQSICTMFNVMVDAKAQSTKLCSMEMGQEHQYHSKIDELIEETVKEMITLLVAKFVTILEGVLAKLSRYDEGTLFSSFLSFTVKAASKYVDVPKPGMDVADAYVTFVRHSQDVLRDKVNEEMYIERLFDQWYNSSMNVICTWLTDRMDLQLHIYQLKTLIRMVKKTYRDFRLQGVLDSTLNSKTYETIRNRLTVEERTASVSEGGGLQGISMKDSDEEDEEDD

For assay [1], the target named is native CAPS of PC12 cells (cytosolic and membrane-bound) (rat (endogenous in PC12)) (UniProt Q62717). Nature of the assay: native gel or EMSA; CN-PAGE of the 300 mM NaCl (high salt) extract of washed permeable PC12 cells (cell ghosts), Western blot with CAPS antibody.
The target in assay [2] is CAPS-Myc-His (recombinant wild-type rat CAPS) (Rattus norvegicus) (UniProt Q62717). Nature of the assay: SEC; Sephacryl-300 by FPLC; fractions analysed by clear native gels and immunoblotting, at once and after 24 h on ice; both purified.
Assay [3] has as its target CAPS(ΔC2)-Myc-His (Rattus norvegicus) (UniProt Q62717). Nature of the assay: native gel or EMSA; blue native (BN-PAGE, 5-14% or 6-14%) or clear native (CN-PAGE, 6%, 4 °C) gels of purified soluble protein without lipid; Coomassie or Western blot (CAPS or Myc antibody); 20 mM HEPES, 10 mM NaCl, 10 mM imidazole, 5% glycerol, pH 7.4 for CN-PAGE; both purified. (Mobility shift assays separate free from complexed probe on a gel.)

These are yes or no findings as the source states them, for the method shown. Some entries that bind do so weakly or less than the wild type.

Regarding “native CAPS of PC12 cells (cytosolic and membrane-bound) (from UniProt Q62717 1-1289)”, in assay [1], the binding entry is listed as “binds”.
On to “CAPS-Myc-His (recombinant wild-type rat CAPS) (from UniProt Q62717 1-1289)”, for which, in assay [2], the binding result is given as “binds weakly”.
As to “CAPS(ΔC2)-Myc-His (from UniProt Q62717 1-1289)”, in assay [3], the binding entry is listed as “binds weakly”.
